PubChem BioAssay AID1224829 | NIAID | 2016

Test: 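Secondary check of hits that alter LPS-induced p65 translocation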 (follow-up of hits)
Cell system: mouse RAW264.7 G9 macrophage reporter cells
Knock-down reagent: single siRNA against mouse genes, 100 nM
Time to read-out: 2 days of siRNA knock-down, then 40 min of LPS before fixing
Challenge: LPS (Salmonella minnesota R595) at 10 ng/ml
Read-out: 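High-content images after 40 min LPS exposure; GFP-p65 nucleus to surrounding ring signal ratio, normalised to plate median and non-targeting control wells, expressed as z-score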
Direction: p65 translocation z-score: higher = more nuclear NF-kappaB p65 after LPS
Active means: 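Active means the replicate-mean z-score lies beyond plus or minus 2, in either direction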
Meaning of the calls: active = changed p65 translocation (either direction); inactive = no clear change
Shown is one part, drawn at random, of about 3,800 reagents. 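Calls cover raised and lowered translocation; gene median uses one vendor's three siRNAs; qiagen siRNAs acted more weakly than ambion siRNAs.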 Reagents against one gene are numbered here. Not all columns of the deposit are shown.

| gene | reagent no. | siRNA vendor or control pool | p65 translocation z-score, replicate mean | p65 translocation z-score, replicate 1 | Outcome |
| --- | --- | --- | --- | --- | --- |
| Krtap9-1 | 1 | ambion single siRNA | -2.08 | -3.52 | active |
| Krtap9-1 | 2 | ambion single siRNA | -0.439 | -1.19 | inactive |
| Krtap9-1 | 3 | ambion single siRNA | -3.62 | -3.02 | active |
| Krtap9-1 | 4 | qiagen single siRNA | -1.11 | -0.9 | inactive |
| Krtap9-1 | 5 | qiagen single siRNA | -1.04 | -1.57 | inactive |
| Krtap9-1 | 6 | qiagen single siRNA | -1.31 | -2.08 | inactive |
| Rpl5 | 1 | ambion single siRNA | -4.55 | -5.14 | active |
| Rpl5 | 2 | ambion single siRNA | -2.28 | -1.7 | active |
| Rpl5 | 3 | ambion single siRNA | -5.84 | -6.05 | active |
| Rpl5 | 4 | qiagen single siRNA | -4.61 | -2.68 | active |
| Rpl5 | 5 | qiagen single siRNA | -6.18 | -6.18 | active |
| Rpl5 | 6 | qiagen single siRNA | -1.94 | -0.637 | inactive |
| Phax | 1 | ambion single siRNA | 2.95 | 4.46 | active |
| Phax | 2 | ambion single siRNA | -2.45 | -3.09 | active |
| Phax | 3 | ambion single siRNA | -3.64 | -3.54 | active |
| Phax | 4 | qiagen single siRNA | 2.24 | 1.71 | active |
| Phax | 5 | qiagen single siRNA | 0.67 | -0.23 | inactive |
| Phax | 6 | qiagen single siRNA | 2.4 | 0.681 | active |
| Magi1 | 1 | ambion single siRNA | 0.0748 | -0.443 | inactive |
| Magi1 | 2 | ambion single siRNA | -2.74 | -1.79 | active |
| Magi1 | 3 | ambion single siRNA | -0.174 | 1.44 | inactive |
| Magi1 | 4 | qiagen single siRNA | 3.35 | 1.84 | active |
| Magi1 | 5 | qiagen single siRNA | 1.05 | 0.692 | inactive |
| Magi1 | 6 | qiagen single siRNA | 1.81 | 0.529 | inactive |
| Taar5 | 1 | ambion single siRNA | 0.243 | -0.985 | inactive |
| Taar5 | 2 | ambion single siRNA | -0.318 | 0.0565 | inactive |
| Taar5 | 3 | ambion single siRNA | -1.68 | -0.54 | inactive |
| Taar5 | 4 | qiagen single siRNA | -1.01 | -1.03 | inactive |
| Taar5 | 5 | qiagen single siRNA | 1.61 | 1.61 | inactive |
| Taar5 | 6 | qiagen single siRNA | -1.72 | -1.87 | inactive |
| Bambi | 1 | ambion single siRNA | -2.32 | -2.94 | active |
| Bambi | 2 | ambion single siRNA | -2.19 | -2.05 | active |
| Bambi | 3 | ambion single siRNA | -3.91 | -4.53 | active |
| Bambi | 4 | qiagen single siRNA | 0.182 | -0.236 | inactive |
| Bambi | 5 | qiagen single siRNA | -0.558 | -1.27 | inactive |
| Bambi | 6 | qiagen single siRNA | -2.67 | -2.67 | active |
